The text below walks through data of patent US20240301030A1.

Chains of the proteins cited; added tags and fusions are not shown. Residues count along the entry.
UniProt Q92673, residues 82-2214: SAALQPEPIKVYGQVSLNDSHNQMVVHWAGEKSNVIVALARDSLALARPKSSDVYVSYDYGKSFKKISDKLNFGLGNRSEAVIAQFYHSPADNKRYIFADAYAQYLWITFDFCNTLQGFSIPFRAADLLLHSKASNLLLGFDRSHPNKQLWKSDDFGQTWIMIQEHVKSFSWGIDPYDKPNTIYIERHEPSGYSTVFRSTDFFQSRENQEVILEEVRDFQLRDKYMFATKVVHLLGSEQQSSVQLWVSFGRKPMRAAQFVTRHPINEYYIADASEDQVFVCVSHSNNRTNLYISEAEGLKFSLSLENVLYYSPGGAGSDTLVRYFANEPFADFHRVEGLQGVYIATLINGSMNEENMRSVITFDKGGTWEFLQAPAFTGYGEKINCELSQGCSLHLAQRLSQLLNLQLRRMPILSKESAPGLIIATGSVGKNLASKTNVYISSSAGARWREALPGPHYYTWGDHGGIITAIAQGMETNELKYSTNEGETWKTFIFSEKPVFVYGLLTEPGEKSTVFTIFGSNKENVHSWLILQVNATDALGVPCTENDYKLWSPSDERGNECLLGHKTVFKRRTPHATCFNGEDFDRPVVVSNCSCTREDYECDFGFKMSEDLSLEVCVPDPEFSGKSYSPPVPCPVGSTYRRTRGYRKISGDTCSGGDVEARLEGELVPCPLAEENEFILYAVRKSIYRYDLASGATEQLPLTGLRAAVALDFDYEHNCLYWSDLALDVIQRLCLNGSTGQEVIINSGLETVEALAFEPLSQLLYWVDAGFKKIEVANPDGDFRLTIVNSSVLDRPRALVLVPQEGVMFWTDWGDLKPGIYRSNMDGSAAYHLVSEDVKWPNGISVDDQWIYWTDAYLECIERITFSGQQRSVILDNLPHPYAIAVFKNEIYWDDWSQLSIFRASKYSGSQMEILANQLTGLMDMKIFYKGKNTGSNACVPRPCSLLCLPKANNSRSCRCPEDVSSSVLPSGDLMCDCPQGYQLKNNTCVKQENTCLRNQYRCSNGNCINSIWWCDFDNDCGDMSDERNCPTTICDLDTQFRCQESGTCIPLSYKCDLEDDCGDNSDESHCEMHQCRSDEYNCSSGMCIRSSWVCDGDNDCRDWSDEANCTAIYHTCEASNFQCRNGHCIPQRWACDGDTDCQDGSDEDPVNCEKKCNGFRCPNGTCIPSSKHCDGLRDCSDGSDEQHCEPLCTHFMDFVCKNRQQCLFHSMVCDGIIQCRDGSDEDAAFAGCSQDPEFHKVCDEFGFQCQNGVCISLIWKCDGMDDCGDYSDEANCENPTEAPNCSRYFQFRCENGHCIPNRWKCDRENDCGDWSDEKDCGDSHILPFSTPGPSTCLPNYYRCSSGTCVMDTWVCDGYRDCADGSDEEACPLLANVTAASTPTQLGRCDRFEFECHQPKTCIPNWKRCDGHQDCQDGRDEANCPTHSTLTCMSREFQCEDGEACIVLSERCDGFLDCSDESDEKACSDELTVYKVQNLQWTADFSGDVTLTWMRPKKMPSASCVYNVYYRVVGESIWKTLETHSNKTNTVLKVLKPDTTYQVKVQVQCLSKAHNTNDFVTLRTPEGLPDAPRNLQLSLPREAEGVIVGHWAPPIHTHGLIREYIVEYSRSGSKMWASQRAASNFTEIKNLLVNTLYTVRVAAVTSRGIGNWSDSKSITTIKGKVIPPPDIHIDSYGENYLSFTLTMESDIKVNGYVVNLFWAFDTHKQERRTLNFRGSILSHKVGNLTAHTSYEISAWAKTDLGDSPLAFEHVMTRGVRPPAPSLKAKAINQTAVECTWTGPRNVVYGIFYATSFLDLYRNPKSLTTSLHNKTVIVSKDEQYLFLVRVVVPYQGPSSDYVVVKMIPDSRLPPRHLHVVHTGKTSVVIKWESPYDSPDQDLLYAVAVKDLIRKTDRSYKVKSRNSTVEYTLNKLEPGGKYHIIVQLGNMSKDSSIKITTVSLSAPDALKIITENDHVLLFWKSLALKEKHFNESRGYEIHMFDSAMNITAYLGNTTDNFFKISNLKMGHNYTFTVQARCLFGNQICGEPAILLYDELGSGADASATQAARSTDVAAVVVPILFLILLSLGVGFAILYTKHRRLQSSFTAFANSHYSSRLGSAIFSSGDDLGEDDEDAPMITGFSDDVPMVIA

In assay [1] the target is SORLA with C-terminal fusion of the C-terminal fragment of venus fluorescent protein (human) (UniProt Q92673). The assay can be described thus: bimolecular fluorescence complementation (split venus), HEK293T cells.
For assay [2] the target is unchanged. Kind of assay: GFP-trap immunoprecipitation of reconstituted venus, WB for SORLA.
Assay [3] deals with full-length SORLA with C-terminal GFP-tag (human) (UniProt Q92673). Kind of assay: in situ proximity ligation assay, co-transfected HEK293 cells.
Assay [4] has the same target. Kind of assay: in situ proximity ligation assay, co-transfected HEK293 cells (figure legend).

These are yes or no findings as the source states them, for the method shown. For some of these results: In cells and extracts the contact can be indirect. Some entries that bind do so weakly or less than the wild type.

“SORLA with C-terminal fusion of the N-terminal fragment of venus fluorescent protein (from UniProt Q92673 82-2214) (receptor)”: the binding entry in assay [1] and in assay [2] was “binds” throughout.

For the substance “full-length SORLA with C-terminal FLAG-tag (from UniProt Q92673 82-2214) (receptor)”, the binding entry in assay [3] and in assay [4] was “binds” in each case.
